## Melanoma cell counts after drug treatment

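Human melanoma cells were exposed to a pair of drugs for 72 h in 1,536-well plates and read by automated microscopy after fixing and staining. Each value is the count of nuclei relative to DMSO-treated wells, in %, so that 100 equals the control. Concentrations were fixed for each drug; these are the lower of two levels, a fifth of the higher. The file gives one value for each pair and line, without errors, so small differences may be noise.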 An unselected part of the screen is shown. An entry leaves out what has no value listed here. A dash means that no value is listed here.

Compounds and concentrations:
cisplatin (1600 nM): N.N.[Cl][Pt][Cl]
CX-4945 (400 nM): O=C(O)c1ccc2c(c1)nc(Nc1cccc(Cl)c1)c1ccncc12
PD173074 (100 nM): CCN(CC)CCCCNc1ncc2cc(-c3cc(OC)cc(OC)c3)c(NC(=O)NC(C)(C)C)nc2n1
BI-78D3 (200 nM): O=c1[nH]nc(Sc2ncc([N+](=O)[O-])s2)n1-c1ccc2c(c1)OCCO2
YM155 (0.4 nM): COCC[n+]1c2c(n(Cc3cnccn3)c1C)C(=O)c1ccccc1C2=O
CHIR-265 (80 nM): Cn1c(Nc2ccc(C(F)(F)F)cc2)nc2cc(Oc3ccnc(-c4ncc(C(F)(F)F)[nH]4)c3)ccc21
ABT-263 (400 nM): CC1(C)CCC(c2ccc(Cl)cc2)=C(CN2CCN(c3ccc(C(=O)NS(=O)(=O)c4ccc(N[C@H](CCN5CCOCC5)CSc5ccccc5)c(S(=O)(=O)C(F)(F)F)c4)cc3)CC2)C1
OSI-906 (400 nM): C[C@]1(O)C[C@@H](c2nc(-c3ccc4ccc(-c5ccccc5)nc4c3)c3c(N)nccn32)C1
VX-702 (400 nM): NC(=O)c1ccc(N(C(N)=O)c2c(F)cccc2F)nc1-c1ccc(F)cc1F
docetaxel (0.1 nM): CC(=O)O[C@@]12CO[C@@H]1C[C@H](O)[C@@]1(C)C(=O)[C@H](O)C3=C(C)[C@@H](OC(=O)[C@H](O)[C@@H](NC(=O)OC(C)(C)C)c4ccccc4)C[C@@](O)([C@@H](OC(=O)c4ccccc4)[C@H]21)C3(C)C
SU6656 (400 nM): CN(C)S(=O)(=O)c1ccc2c(c1)/C(=C/c1cc3c([nH]1)CCCC3)C(=O)N2
crizotinib (200 nM): C[C@@H](Oc1cc(-c2cnn(C3CCNCC3)c2)cnc1N)c1c(Cl)ccc(F)c1Cl
temozolomide (2000 nM): Cn1nnc2c(C(N)=O)ncn2c1=O

Results for YM155 + PD173074 are A101D: 111; COLO 829: 128; COLO 792: 88.1; A375: 74.9; MEL-HO: 92.2; A2058: 73.2; IPC-298: 88.2; LOX IMVI: 123.
Results for temozolomide + CX-4945 are A101D: 99.3; COLO 829: 85.1; COLO 792: 85.4; A375: 109; MEL-HO: 78.0; A2058: 66.3; IPC-298: 91.3; LOX IMVI: 53.3.
Results for docetaxel + OSI-906 are A101D: 74.3; COLO 829: 59.0; COLO 792: 36.8; A375: 21.6; MEL-HO: 50.7; A2058: 11.0; IPC-298: 58.4; LOX IMVI: 79.2.
Results for PD173074 + CX-4945 are A101D: 99.0; COLO 829: 90.3; COLO 792: 88.1; MEL-HO: 82.7; A2058: 93.0; IPC-298: 97.7; LOX IMVI: 58.2.
Results for OSI-906 + VX-702 are A101D: 99.1; COLO 829: 90.2; COLO 792: 90.1; A375: 70.3; MEL-HO: 94.7; A2058: 104; IPC-298: 90.8; LOX IMVI: 136.
Results for docetaxel + crizotinib are A101D: 49.9; COLO 829: 44.8; COLO 792: 29.9; A375: 24.2; MEL-HO: 66.0; A2058: 11.9; IPC-298: 67.1; LOX IMVI: 96.3.
Results for CHIR-265 + PD173074 are A101D: 58.8; COLO 829: 101; COLO 792: 54.1; A375: 66.2; MEL-HO: 71.9; A2058: 85.6; IPC-298: 58.3; LOX IMVI: 45.6.
Results for BI-78D3 + docetaxel are A101D: 69.6; COLO 829: 66.9; COLO 792: 44.8; A375: 41.3; MEL-HO: 62.1; A2058: 27.4; IPC-298: 71.1; LOX IMVI: 44.8.
Results for YM155 + CX-4945 are A101D: 93.5; COLO 829: 89.5; COLO 792: 86.2; A375: 99.7; MEL-HO: 84.0; A2058: 79.7; IPC-298: 98.0; LOX IMVI: 80.5.
Results for OSI-906 + ABT-263 are A101D: 51.1; COLO 829: 94.3; COLO 792: 40.8; A375: 38.8; MEL-HO: 74.2; A2058: 101; IPC-298: 93.6; LOX IMVI: 26.3.
Results for ABT-263 + crizotinib are A101D: 51.2; COLO 829: 92.8; COLO 792: 48.3; A375: 66.3; MEL-HO: 74.9; A2058: 105; IPC-298: 99.4; LOX IMVI: 62.6.
Results for cisplatin + OSI-906 are A101D: 96.4; COLO 829: 92.7; COLO 792: 102; A375: 58.7; MEL-HO: 100; A2058: 87.3; IPC-298: 92.9; LOX IMVI: 65.6.
Results for crizotinib + CX-4945 are A101D: 86.8; COLO 829: 57.5; COLO 792: 82.7; A375: 105; MEL-HO: 95.1; A2058: 89.0; IPC-298: 99.1; LOX IMVI: 79.1.
Results for YM155 + ABT-263 are A101D: 44.4; COLO 829: 85.6; COLO 792: 41.2; A375: 56.3; MEL-HO: 65.6; A2058: 84.9; IPC-298: 92.4; LOX IMVI: 19.3.
Results for docetaxel + CHIR-265 are A101D: 57.5; COLO 829: 57.5; COLO 792: 22.4; A375: 17.3; MEL-HO: 38.5; A2058: 2.9; IPC-298: 47.7; LOX IMVI: 38.9.
Results for temozolomide + BI-78D3 are A101D: 88.0; COLO 829: 86.4; COLO 792: 90.5; A375: 70.5; MEL-HO: 93.5; A2058: 90.6; IPC-298: 93.6; LOX IMVI: 90.2.
Results for SU6656 + OSI-906 are A101D: 63.4; COLO 829: 91.8; COLO 792: 74.3; A375: 64.6; MEL-HO: 94.2; A2058: 89.8; IPC-298: 91.3; LOX IMVI: 91.5.
Results for docetaxel + cisplatin are A101D: 68.9; COLO 829: 44.6; COLO 792: 29.5; A375: 37.0; MEL-HO: 52.9; A2058: 14.6; IPC-298: 69.3; LOX IMVI: 76.8.
Results for ABT-263 + BI-78D3 are A101D: 51.8; COLO 829: 103; COLO 792: 55.5; A375: 74.0; MEL-HO: 80.9; A2058: 89.8; IPC-298: 96.9; LOX IMVI: 32.8.
Results for CHIR-265 + ABT-263 are A101D: 26.3; COLO 829: 93.6; COLO 792: 7.0; A375: 38.4; MEL-HO: 47.6; A2058: 70.3; IPC-298: 58.8; LOX IMVI: 14.3.
Results for YM155 + cisplatin are A101D: 98.5; COLO 829: 95.0; COLO 792: 120; A375: 101; MEL-HO: 110; A2058: 93.1; IPC-298: 97.7; LOX IMVI: 64.7.
Results for SU6656 + BI-78D3 are A101D: 81.1; COLO 829: 77.0; COLO 792: 93.1; A375: 88.0; MEL-HO: 108; A2058: 87.4; IPC-298: 101; LOX IMVI: 109.
Results for ABT-263 + cisplatin are A101D: 43.1; COLO 829: 110; COLO 792: 64.1; A375: 70.9; MEL-HO: 76.2; A2058: 98.8; IPC-298: 104; LOX IMVI: 39.8.
Results for OSI-906 + PD173074 are A101D: 109; COLO 829: 110; COLO 792: 105; MEL-HO: 97.8; A2058: 99.8; IPC-298: 96.3; LOX IMVI: 88.3.
Results for OSI-906 + YM155 are A101D: 103; COLO 829: 101; COLO 792: 98.6; A375: 70.8; MEL-HO: 96.0; A2058: 88.8; IPC-298: 93.7; LOX IMVI: 92.0.
Results for cisplatin + CX-4945 are A101D: 103; COLO 829: 76.2; COLO 792: 99.8; A375: 118; MEL-HO: 95.7; A2058: 90.8; IPC-298: 106; LOX IMVI: 61.7.
Results for SU6656 + docetaxel are A101D: 57.2; COLO 829: 37.8; COLO 792: 34.6; A375: 21.5; MEL-HO: 54.8; A2058: 14.0; IPC-298: 61.1; LOX IMVI: 51.2.
Results for docetaxel + YM155 are A101D: 59.8; COLO 829: 58.0; COLO 792: 33.3; A375: 26.2; MEL-HO: 61.8; A2058: 12.2; IPC-298: 64.6; LOX IMVI: 34.4.
Results for crizotinib + YM155 are A101D: 118; COLO 829: 85.9; COLO 792: 107; A375: 88.8; MEL-HO: 95.7; A2058: 91.9; IPC-298: 87.2; LOX IMVI: 97.6.
Results for cisplatin + temozolomide are A101D: 96.6; COLO 829: 91.6; COLO 792: 107; A375: 93.6; MEL-HO: 91.4; A2058: 92.6; IPC-298: 95.3; LOX IMVI: 92.0.
Results for ABT-263 + temozolomide are A101D: 45.4; COLO 829: 89.2; COLO 792: 45.2; A375: 83.2; MEL-HO: 92.6; A2058: 82.8; IPC-298: 99.9; LOX IMVI: 46.8.
Results for CX-4945 + CHIR-265 are A101D: 60.3; COLO 829: 97.8; COLO 792: 51.6; A375: 54.9; MEL-HO: 71.5; A2058: 77.2; IPC-298: 67.5; LOX IMVI: 75.8.
Results for PD173074 + temozolomide are A101D: 113; COLO 829: 102; COLO 792: 99.3; A375: 88.9; MEL-HO: 78.0; A2058: 89.2; IPC-298: 89.6; LOX IMVI: 83.6.
Results for cisplatin + VX-702 are A101D: 96.0; COLO 829: 92.4; COLO 792: 103; A375: 100; MEL-HO: 107; A2058: 97.6; IPC-298: 106; LOX IMVI: 98.7.
Results for crizotinib + CHIR-265 are A101D: 64.8; COLO 829: 95.2; COLO 792: 61.3; A375: 88.8; MEL-HO: 82.3; A2058: 95.4; IPC-298: 70.6; LOX IMVI: 106.
Results for VX-702 + CHIR-265 are A101D: 72.2; COLO 829: 77.3; COLO 792: 57.8; A375: 80.8; MEL-HO: 79.5; A2058: 96.9; IPC-298: 75.0; LOX IMVI: 87.3.
Results for YM155 + BI-78D3 are A101D: 92.4; COLO 829: 82.8; COLO 792: 107; A375: 92.0; MEL-HO: 110; A2058: 94.8; IPC-298: 93.5; LOX IMVI: 87.7.
Results for OSI-906 + BI-78D3 are A101D: 108; COLO 829: 92.4; COLO 792: 92.6; A375: 61.7; MEL-HO: 94.5; A2058: 98.9; IPC-298: 93.2; LOX IMVI: 83.7.
Results for crizotinib + VX-702 are A101D: 104; COLO 829: 84.2; COLO 792: 93.6; A375: 116; MEL-HO: 109; A2058: 115; IPC-298: 98.2; LOX IMVI: 105.

For reference, 5 entries once more:

Drugs	A101D	COLO 829	COLO 792	A375	MEL-HO	A2058	IPC-298	LOX IMVI
PD173074 + CX-4945	99.0	90.3	88.1	-	82.7	93.0	97.7	58.2
docetaxel + crizotinib	49.9	44.8	29.9	24.2	66.0	11.9	67.1	96.3
SU6656 + OSI-906	63.4	91.8	74.3	64.6	94.2	89.8	91.3	91.5
VX-702 + CHIR-265	72.2	77.3	57.8	80.8	79.5	96.9	75.0	87.3
cisplatin + VX-702	96.0	92.4	103	100	107	97.6	106	98.7

Source: doi:10.1371/journal.pone.0140310, primary screening data, rounded.